Measured values as given in publication doi:10.1101/2024.11.05.621850.
Changes are numbered by the printed parent chain. These are yes or no findings as the source states them, for the method shown. In cells and extracts the contact can be indirect. Some results given as binding are weak or reduced against the parent protein; the word gives no strength. For part of these data: Tags and fused reporters may be left off the sequences shown. Blank lines part the entries; values can stand above or below the molecule they belong to.

Sequences of proteins named here, by UniProt entry; tags and fusion partners are left off. A change or cut given only in a name is not applied to a line headed by its entry.
UniProt P61019, whole entry: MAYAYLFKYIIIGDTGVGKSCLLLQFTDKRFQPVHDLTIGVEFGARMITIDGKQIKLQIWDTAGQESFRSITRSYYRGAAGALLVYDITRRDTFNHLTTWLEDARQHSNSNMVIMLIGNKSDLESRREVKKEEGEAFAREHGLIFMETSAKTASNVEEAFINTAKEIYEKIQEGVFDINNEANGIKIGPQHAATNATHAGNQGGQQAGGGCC
UniProt P61106, whole entry, looked up, stated change not applied: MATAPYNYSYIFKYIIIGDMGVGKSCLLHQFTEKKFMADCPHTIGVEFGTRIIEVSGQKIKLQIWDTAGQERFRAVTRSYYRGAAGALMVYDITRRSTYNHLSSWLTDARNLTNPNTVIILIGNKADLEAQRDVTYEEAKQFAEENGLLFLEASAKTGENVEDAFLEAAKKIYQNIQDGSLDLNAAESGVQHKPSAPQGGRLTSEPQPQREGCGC
UniProt Q96Q42, whole entry: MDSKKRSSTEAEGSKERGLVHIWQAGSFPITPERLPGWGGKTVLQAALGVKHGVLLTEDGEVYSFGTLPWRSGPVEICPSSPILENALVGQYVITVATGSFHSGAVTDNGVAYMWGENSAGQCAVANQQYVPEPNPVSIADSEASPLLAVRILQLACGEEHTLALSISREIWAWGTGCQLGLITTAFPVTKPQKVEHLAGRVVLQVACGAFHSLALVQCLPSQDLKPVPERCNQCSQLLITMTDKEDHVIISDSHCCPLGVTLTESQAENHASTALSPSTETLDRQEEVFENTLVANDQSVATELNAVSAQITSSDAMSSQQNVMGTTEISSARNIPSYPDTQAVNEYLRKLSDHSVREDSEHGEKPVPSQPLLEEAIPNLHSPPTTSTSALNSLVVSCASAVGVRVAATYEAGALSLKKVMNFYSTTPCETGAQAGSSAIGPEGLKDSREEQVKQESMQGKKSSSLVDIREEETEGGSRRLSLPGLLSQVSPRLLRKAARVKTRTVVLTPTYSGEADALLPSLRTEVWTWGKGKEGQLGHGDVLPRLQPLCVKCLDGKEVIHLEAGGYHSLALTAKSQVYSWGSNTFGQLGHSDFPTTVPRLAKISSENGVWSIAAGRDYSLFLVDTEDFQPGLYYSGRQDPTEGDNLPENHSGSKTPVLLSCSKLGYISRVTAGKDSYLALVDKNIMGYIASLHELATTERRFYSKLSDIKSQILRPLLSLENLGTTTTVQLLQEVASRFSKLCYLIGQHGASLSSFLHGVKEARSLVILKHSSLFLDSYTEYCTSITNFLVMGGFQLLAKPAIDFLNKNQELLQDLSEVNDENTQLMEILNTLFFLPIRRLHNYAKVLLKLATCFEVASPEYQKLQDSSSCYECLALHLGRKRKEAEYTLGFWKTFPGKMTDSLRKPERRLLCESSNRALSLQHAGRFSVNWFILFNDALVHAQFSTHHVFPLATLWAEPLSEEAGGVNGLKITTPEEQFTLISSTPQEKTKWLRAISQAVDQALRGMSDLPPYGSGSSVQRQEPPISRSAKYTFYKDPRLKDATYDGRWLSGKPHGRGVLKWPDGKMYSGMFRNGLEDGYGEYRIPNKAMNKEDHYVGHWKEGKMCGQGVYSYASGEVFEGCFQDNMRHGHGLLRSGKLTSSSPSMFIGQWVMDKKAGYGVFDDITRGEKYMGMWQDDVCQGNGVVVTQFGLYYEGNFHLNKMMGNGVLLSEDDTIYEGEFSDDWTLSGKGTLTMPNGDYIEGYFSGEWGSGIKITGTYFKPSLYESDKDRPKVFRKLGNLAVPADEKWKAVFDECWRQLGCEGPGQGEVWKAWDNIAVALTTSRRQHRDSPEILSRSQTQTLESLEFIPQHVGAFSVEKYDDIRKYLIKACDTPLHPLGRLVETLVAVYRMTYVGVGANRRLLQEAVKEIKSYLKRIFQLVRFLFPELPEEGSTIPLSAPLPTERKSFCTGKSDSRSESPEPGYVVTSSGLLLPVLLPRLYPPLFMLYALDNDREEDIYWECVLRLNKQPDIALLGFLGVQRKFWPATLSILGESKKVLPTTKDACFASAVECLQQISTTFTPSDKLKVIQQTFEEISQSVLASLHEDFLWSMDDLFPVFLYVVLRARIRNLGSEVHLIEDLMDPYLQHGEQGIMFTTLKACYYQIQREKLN

Experiments:
GFP:RAB25 (human) = biological target: T1, GFP:RAB25 (human) (UniProt P57735); assay: co-IP
T1 sequence: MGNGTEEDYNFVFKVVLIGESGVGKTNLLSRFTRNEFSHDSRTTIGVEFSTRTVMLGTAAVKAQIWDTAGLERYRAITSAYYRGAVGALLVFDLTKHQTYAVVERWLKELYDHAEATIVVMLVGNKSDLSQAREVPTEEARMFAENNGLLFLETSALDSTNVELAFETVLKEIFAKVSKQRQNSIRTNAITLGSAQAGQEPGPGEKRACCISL

GFP:RAB2A = GFP:RAB2A (UniProt P61019); assay: proximity ligation
EGFP:RAB32WT (human) = biological target: T2, EGFP:RAB32WT (human) (UniProt Q13637); assay: co-IP
T2 sequence: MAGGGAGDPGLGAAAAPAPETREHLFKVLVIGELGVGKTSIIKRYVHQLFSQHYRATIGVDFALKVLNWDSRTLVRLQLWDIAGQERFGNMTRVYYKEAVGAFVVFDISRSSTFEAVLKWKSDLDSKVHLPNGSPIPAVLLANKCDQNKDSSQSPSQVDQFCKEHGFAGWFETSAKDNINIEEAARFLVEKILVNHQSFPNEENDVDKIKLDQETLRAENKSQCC

[1] = biological target: T3, GFP:RAB32CA (Q85L) (human) (UniProt Q13637); assay: co-IP
T3 sequence: T2 sequence with Q85L

[2] = biological target: GFP:RAB14 Q70L (CA) (human) (UniProt P61106); assay: co-IP

B1: 3xHA COG6 (protein, UniProt Q9Y2V7 1-657)
chain: MAEGSGEVVAVSATGAANGLNNGAGGTSATTCNPLSRKLHKILETRLDNDKEMLEALKALSTFFVENSLRTRRNLRGDIERKSLAINEEFVSIFKEVKEELESISEDVQAMSNCCQDMTSRLQAAKEQTQDLIVKTTKLQSESQKLEIRAQVADAFLSKFQLTSDEMSLLRGTREGPITEDFFKALGRVKQIHNDVKVLLRTNQQTAGLEIMEQMALLQETAYERLYRWAQSECRTLTQESCDVSPVLTQAMEALQDRPVLYKYTLDEFGTARRSTVVRGFIDALTRGGPGGTPRPIEMHSHDPLRYVGDMLAWLHQATASEKEHLEALLKHVTTQGVEENIQEVVGHITEGVCRPLKVRIEQVIVAEPGAVLLYKISNLLKFYHHTISGIVGNSATALLTTIEEMHLLSKKIFFNSLSLHASKLMDKVELPPPDLGPSSALNQTLMLLREVLASHDSSVVPLDARQADFVQVLSCVLDPLLQMCTVSASNLGTADMATFMVNSLYMMKTTLALFEFTDRRLEMLQFQIEAHLDTLINEQASYVLTRVGLSYIYNTVQQHKPEQGSLANMPNLDSVTLKAAMVQFDRYLSAPDNLLIPQLNFLLSATVKEQIVKQSTELVCRAYGEVYAAVMNPINEYKDPENILHRSPQQVQTLLS
- binding (GFP:RAB2A): binds

B4: 3xHA COG4 (protein, UniProt Q9H9E3 1-785)
chain: MADLDSPPKLSGVQQPSEGVGGGRCSEISAELIRSLTELQELEAVYERLCGEEKVVERELDALLEQQNTIESKMVTLHRMGPNLQLIEGDAKQLAGMITFTCNLAENVSSKVRQLDLAKNRLYQAIQRADDILDLKFCMDGVQTALRSEDYEQAAAHTHRYLCLDKSVIELSRQGKEGSMIDANLKLLQEAEQRLKAIVAEKFAIATKEGDLPQVERFFKIFPLLGLHEEGLRKFSEYLCKQVASKAEENLLMVLGTDMSDRRAAVIFADTLTLLFEGIARIVETHQPIVETYYGPGRLYTLIKYLQVECDRQVEKVVDKFIKQRDYHQQFRHVQNNLMRNSTTEKIEPRELDPILTEVTLMNARSELYLRFLKKRISSDFEVGDSMASEEVKQEHQKCLDKLLNNCLLSCTMQELIGLYVTMEEYFMRETVNKAVALDTYEKGQLTSSMVDDVFYIVKKCIGRALSSSSIDCLCAMINLATTELESDFRDVLCNKLRMGFPATTFQDIQRGVTSAVNIMHSSLQQGKFDTKGIESTDEAKMSFLVTLNNVEVCSENISTLKKTLESDCTKLFSQGIGGEQAQAKFDSCLSDLAAVSNKFRDLLQEGLTELNSTAIKPQVQPWINSFFSVSHNIEEEEFNDYEANDPWVQQFILNLEQQMAEFKASLSPVIYDSLTGLMTSLVAVELEKVVLKSTFNRLGGLQFDKELRSLIAYLTTVTTWTIRDKFARLSQMATILNLERVTEILDYWGPNSGPLTWRLTPAEVRQVLALRIDFRSEDIKRLRL
- binding (GFP:RAB2A): binds

B6: 3xHA COG1 (protein, UniProt Q8WTW3 1-980)
chain: MATAATSPALKRLDLRDPAALFETHGAEEIRGLERQVRAEIEHKKEELRQMVGERYRDLIEAADTIGQMRRCAVGLVDAVKATDQYCARLRQAGSAAPRPPRAQQPQQPSQEKFYSMAAQIKLLLEIPEKIWSSMEASQCLHATQLYLLCCHLHSLLQLDSSSSRYSPVLSRFPILIRQVAAASHFRSTILHESKMLLKCQGVSDQAVAEALCSIMLLEESSPRQALTDFLLARKATIQKLLNQPHHGAGIKAQICSLVELLATTLKQAHALFYTLPEGLLPDPALPCGLLFSTLETITGQHPAGKGTGVLQEEMKLCSWFKHLPASIVEFQPTLRTLAHPISQEYLKDTLQKWIHMCNEDIKNGITNLLMYVKSMKGLAGIRDAMWELLTNESTNHSWDVLCRRLLEKPLLFWEDMMQQLFLDRLQTLTKEGFDSISSSSKELLVSALQELESSTSNSPSNKHIHFEYNMSLFLWSESPNDLPSDAAWVSVANRGQFASSGLSMKAQAISPCVQNFCSALDSKLKVKLDDLLAYLPSDDSSLPKDVSPTQAKSSAFDRYADAGTVQEMLRTQSVACIKHIVDCIRAELQSIEEGVQGQQDALNSAKLHSVLFMARLCQSLGELCPHLKQCILGKSESSEKPAREFRALRKQGKVKTQEIIPTQAKWQEVKEVLLQQSVMGYQVWSSAVVKVLIHGFTQSLLLDDAGSVLATATSWDELEIQEEAESGSSVTSKIRLPAQPSWYVQSFLFSLCQEINRVGGHALPKVTLQEMLKSCMVQVVAAYEKLSEEKQIKKEGAFPVTQNRALQLLYDLRYLNIVLTAKGDEVKSGRSKPDSRIEKVTDHLEALIDPFDLDVFTPHLNSNLHRLVQRTSVLFGLVTGTENQLAPRSSTFNSQEPHNILPLASSQIRFGLLPLSMTSTRKAKSTRNIETKAQVVPPARSTAGDPTVPGSLFRQLVSEEDNTSAPSLFKLGWLSSMTK
- binding (GFP:RAB2A): binds

The remaining lines, values ahead:

- binding (GFP:RAB25 (human)): binds
Molecule: HA:ALS2 (from UniProt Q96Q42 1-1657)

- binding (EGFP:RAB32WT (human)): binds
- binding [1]: binds
B2: HA:RABIN8 (protein, UniProt Q96QF0 1-476)
chain: MGLKKMKGLSYDEAFAMANDPLEGFHEVNLASPTSPDLLGVYESGTQEQTTSPSVIYRPHPSALSSVPIQANALDVSELPTQPVYSSPRRLNCAEISSISFHVTDPAPCSTSGVTAGLTKLTTRKDNYNAEREFLQGATITEACDGSDDIFGLSTDSLSRLRSPSVLEVREKGYERLKEELAKAQRELKLKDEECERLSKVRDQLGQELEELTASLFEEAHKMVREANIKQATAEKQLKEAQGKIDVLQAEVAALKTLVLSSSPTSPTQEPLPGGKTPFKKGHTRNKSTSSAMSGSHQDLSVIQPIVKDCKEADLSLYNEFRLWKDEPTMDRTCPFLDKIYQEDIFPCLTFSKSELASAVLEAVENNTLSIEPVGLQPIRFVKASAVECGGPKKCALTGQSKSCKHRIKLGDSSNYYYISPFCRYRITSVCNFFTYIRYIQQGLVKQQDVDQMFWEVMQLRKEMSLAKLGYFKEEL

- binding (EGFP:RAB32WT (human)): binds
- binding [1]: binds
B3: 3xHA:GRAB (protein, UniProt Q8TBN0 1-382)
chain: MWSGPPQPDQGLPPPLAAVPVPWKSTDPCQGHRESPGALVETSAGEEAQGQEGPAAAQLDVLRLRSSSMEIREKGSEFLKEELHRAQKELKLKDEECERLSKVREQLEQELEELTASLFEEAHKMVREANMKQAASEKQLKEARGKIDMLQAEVTALKTLVITSTPASPNRELHPQLLSPTKAGPRKGHSRHKSTSSTLCPAVCPAAGHTLTPDREGKEVDTILFAEFQAWRESPTLDKTCPFLERVYREDVGPCLDFTMQELSVLVRAAVEDNTLTIEPVASQTLPTVKVAEVDCSSTNTCALSGLTRTCRHRIRLGDSKSHYYISPSSRARITAVCNFFTYIRYIQQGLVRQDAEPMFWEIMRLRKEMSLAKLGFFPQEA

- binding [2]: binds
B5: V5:VPS53 (protein, UniProt Q5VIR6 1-832)
chain: MMEEEELEFVEELEAVLQLTPEVQLAIEQVFPSQDPLDRADFNAVEYINTLFPTEQSLANIDEVVNKIRLKIRRLDDNIRTVVRGQTNVGQDGRQALEEAQKAIQQLFGKIKDIKDKAEKSEQMVKEITRDIKQLDHAKRHLTTSITTLNHLHMLAGGVDSLEAMTRRRQYGEVANLLQGVMNVLEHFHKYMGIPQIRQLSERVKAAQTELGQQILADFEEAFPSQGTKRPGGPSNVLRDACLVANILDPRIKQEIIKKFIKQHLSEYLVLFQENQDVAWLDKIDRRYAWIKRQLVDYEEKYGRMFPREWCMAERIAVEFCHVTRAELAKIMRTRAKEIEVKLLLFAIQRTTNFEGFLAKRFSGCTLTDGTLKKLESPPPSTNPFLEDEPTPEMEELATEKGDLDQPKKPKAPDNPFHGIVSKCFEPHLYVYIESQDKNLGELIDRFVADFKAQGPPKPNTDEGGAVLPSCADLFVYYKKCMVQCSQLSTGEPMIALTTIFQKYLREYAWKILSGNLPKTTTSSGGLTISSLLKEKEGSEVAKFTLEELCLICNILSTAEYCLATTQQLEEKLKEKVDVSLIERINLTGEMDTFSTVISSSIQLLVQDLDAACDPALTAMSKMQWQNVEHVGDQSPYVTSVILHIKQNVPIIRDNLASTRKYFTQFCVKFANSFIPKFITHLFKCKPISMVGAEQLLLDTHSLKMVLLDLPSISSQVVRKAPASYTKIVVKGMTRAEMILKVVMAPHEPLVVFVDNYIKLLTDCNTETFQKILDMKGLKRSEQSSMLELLRQRLPAPPSGAESSGSLSLTAPTPEQESSRIRKLEKLIKKRL
